This data set deals with rat spinal nerve ligation (SNL)/Chung model of neuropathic pain. Description: Spinal nerve ligation (SNL)/Chung model, tactile allodynia, electronic von Frey test on lesioned paw. Format: in vivo. Conditions: 128 mg/kg p.o., inter-group comparison. The method, then: Objective: The efficacy of Compound A was assessed using the rat spinal nerve ligation (SNL)/Chung model of neuropathic pain. The SNL model in rats was developed as described previously (Chung J M, Kim H K, Chung K. “Segmental spinal nerve ligation model of neuropathic pain.” Methods Mol. Med. 99 (2004) 35-45).
Study Design. Briefly, on Day 0, von Frey and cold plate tests were used for baseline measurements of tactile and cold allodynia respectively. Post-baseline measurements, rats (171-209 g male Sprague Dawley) were anesthetized and an incision at the L4-S2 level was performed to expose the left L5 nerve. […] On Day 13, post-surgery baselines for tactile and cold allodynia were measured to verify neuropathic pain. […]
Rats were placed under an inverted acrylic plastic box on a grid floor. The tip of an electronic von Frey probe was then applied with increasing force to the surgery hind paw and the force required to induce paw-withdrawal was automatically recorded. The procedure was carried out 3 times and the mean paw withdrawal force was calculated. […]

On to `CN1CC[C@]23c4c5ccc(O)c4O[C@H]2[C@@H](O)C=C[C@H]3[C@H]1C5.Cl` [Morphine, Morphine hydrochloride, reference compound], for which the “Delta from baseline of force, significance compared with Vehicle (p.o.), column c” value reads like this: (Day 14, test 1 h after administration) “*** (*** = p < 0.001)”; (Day 18, test 1 h after administration) “*** (*** = p < 0.001)”.

The record behind these values is patent US20240342156A1, “METHODS FOR TREATING PAIN” (Xenon Pharmaceuticals Inc., priority 2019, published 2024).
